The test system of the test is BDF1 mice, B16 melanoma ip, median survival T/C. As to the kind of experiment: NCI In Vivo Anticancer Drug Screen. Data for tumor model B16 Melanoma (intraperitoneal) in B6D2F1 (BDF1) mice. The following applies: T/C endpoint: median survival time, higher T/C = longer survival. Put shortly: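 In this screen, activity was judged from survival or tumor size in treated versus vehicle-treated tumor-bearing mice, reported as T/C.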

The mark [1] stands for this setting: dose: 200.0 mg/kg/injection, schedule: Q01DX009 (ip), vehicle: saline with Tween-80.
[2] abbreviates: dose: 400.0 mg/kg/injection, schedule: Q01DX009 (ip), vehicle: saline with Tween-80.
Setting [3] is: dose: 1.5 mg/kg/injection, schedule: Q01DX009 (ip), vehicle: saline with Tween-80.
The mark [4] stands for this setting: dose: 3.0 mg/kg/injection, schedule: Q01DX009 (ip), vehicle: saline with Tween-80.
Where [5] appears, read: dose: 100.0 mg/kg/injection, schedule: Q01DX009 (ip), vehicle: Klucel (hydroxypropylcellulose) (HPC).
The mark [6] stands for this setting: dose: 100.0 mg/kg/injection, schedule: Q01DX009 (ip), vehicle: saline.
[7] abbreviates: dose: 200.0 mg/kg/injection, schedule: Q01DX009 (ip), vehicle: Klucel (hydroxypropylcellulose) (HPC).

The text below walks through data of PubChem BioAssay AID192 (DTP/NCI, 2004).

The list is a part of this screen's results and no random one: it is rich in T/C values a quarter to a half above the control, in often repeated tests (any T/C) and in doses without a T/C. Further doses and runs are listed elsewhere. T/C is the treated group as % of the vehicle group. Some doses have a count of surviving animals in place of a T/C: the source files T/C as zero there, which appears to mark a toxic dose or a test without result, not a measured value. Some survivor counts are full or nearly so, which does not show that the dose was tolerated: survival well below the control is almost never listed, so the zero probably covers shortened survival too. Counts of survivors are from the toxicity check (mostly the fifth day) where no day follows; animals may have died later. Schedules are NCI's codes, read here as Q, the interval in days (D) or hours (H), X, the number of doses. Additions like (4×) say how often a value occurs here. Some entries hold several experiments; their values stand side by side, smallest first. For survival time, the PubChem record calls one and a half times the control and up active, and a quarter to a half above the control has no call in these data; cut-offs in other NCI protocols can differ. Some T/C values are followed by the survivors on the day toxicity was checked, most often the fifth; without a count, all were alive then. Square brackets hold non-standard residues; d marks the D form. Peptide text beside a SMILES is read from it. * marks the point of attachment. ξ: configuration not given here. ξF = NC(Cc1ccccc1)C(=O)O; Cbz = O=C(OCc1ccccc1)*; Sar = CNCC(=O)O

On to `COC1=C2C[C@@H](C)C[C@@H](OC)[C@@H](O)[C@H](C)/C=C(\C)[C@@H](OC(N)=O)[C@H](OC)/C=C\C=C(/C)C(=O)NC(=CC1=O)C2=O`, for which the T/C reads like this: (dose: 1.0 mg/kg/injection, schedule: Q01DX005 (ip), vehicle: other) 127 % of control; (dose: 1.0 mg/kg/injection, schedule: Q01DX005 (ip), vehicle: water) 130 % of control; (dose: 1.0 mg/kg/injection, schedule: Q01DX009 (ip), vehicle: saline with Tween-80) 125 % of control; (dose: 2.0 mg/kg/injection, schedule: Q01DX005 (ip), vehicle: water, evaluated on day 45) 130 % of control; (dose: 2.0 mg/kg/injection, schedule: Q01DX005 (ip), vehicle: water, evaluated on day 60) 125 % of control; (dose: 2.0 mg/kg/injection, schedule: Q01DX009 (ip), vehicle: saline with Tween-80) 145 % of control. Also, where the note is “dose: 4.0 mg/kg/injection, schedule: Q01DX005 (ip), vehicle: saline with Tween-80”, the T/C is 138 % of control [9 of 10 alive]. The survivor count is, setting by setting: (dose: 2.0 mg/kg/injection, schedule: Q01DX005 (ip), vehicle: other) 3 of 6; (dose: 4.0 mg/kg/injection, schedule: Q01DX005 (ip), vehicle: other) 0 of 6; (dose: 4.0 mg/kg/injection, schedule: Q01DX005 (ip), vehicle: water) 1 of 6 and 2 of 6; (dose: 4.0 mg/kg/injection, schedule: Q01DX009 (ip), vehicle: saline with Tween-80) 7 of 10; (dose: 8.0 mg/kg/injection, schedule: Q01DX005 (ip), vehicle: water) 0 of 6 (2×).
For `c1ccc2c(c1)CNNC2`, the survivor count is 7 of 10 (dose: 25.0 mg/kg/injection, schedule: Q01DX009 (ip), vehicle: saline) and 9 of 10 (dose: 400.0 mg/kg/injection, schedule: Q01DX009 (ip), vehicle: saline).
In the case of `NCCCCS(=O)(=O)Nc1ccc(Nc2c3ccccc3nc3cc([N+](=O)[O-])ccc23)cc1`, the survivor count is, setting by setting: (dose: 25.0 mg/kg/injection, schedule: Q01DX009 (ip), vehicle: saline sonified) 5 of 6; (dose: 50.0 mg/kg/injection, schedule: Q01DX009 (ip), vehicle: saline sonified) 5 of 6; (dose: 100.0 mg/kg/injection, schedule: Q01DX009 (ip), vehicle: saline sonified) 6 of 6; (dose: 200.0 mg/kg/injection, schedule: Q01DX009 (ip), vehicle: saline sonified) 5 of 6; (dose: 400.0 mg/kg/injection, schedule: Q01DX001 (ip), vehicle: saline sonified) 4 of 6.
On to `C=C1CCN(c2cccc(Cl)c2)C1=O`, for which the survivor count (dose: 8.0 mg/kg/injection, schedule: Q01DX009 (ip), vehicle: saline + alcohol) is 10 of 10.
Turning to `NC(N)=NC(N)=Nc1ccc(-c2ccc(N=C(N)N=C(N)N)cc2)cc1`, where the note is “dose: 25.0 mg/kg/injection, schedule: Q01DX009 (ip), vehicle: saline with Tween-80”, the survivor count is reported as 6 of 10.
On to `CSc1nc2cc(C)c(C)cc2[nH]1`, for which the survivor count reads like this: under setting [1], 10 of 10; under setting [2], 10 of 10.
For the compound `CN(CC(=O)NC(Cc1ccccc1)C(=O)O)C(=O)OCc1ccccc1` (stereo not given) (Cbz-[Sar]-[ξF]-OH), the survivor count under setting [2] was 10 of 10.
Regarding `COC1/C=C\C=C(/C)C(=O)NC2=CC(=O)C(N)=C(CC(C)CC(OC)C(O)C(C)C=C(C)C1OC(N)=O)C2=O` (stereo not given), the T/C by setting is: under setting [3], 137 % of control [9 of 10 alive]; under setting [4], 132 % of control; (dose: 6.0 mg/kg/injection, schedule: Q01DX009 (ip), vehicle: saline with Tween-80) 139 % of control [9 of 10 alive]. The survivor count by setting is: (dose: 12.5 mg/kg/injection, schedule: Q01DX005 (ip), vehicle: other) 3 of 6; (dose: 25.0 mg/kg/injection, schedule: Q01DX005 (ip), vehicle: other) 1 of 6; (dose: 50.0 mg/kg/injection, schedule: Q01DX005 (ip), vehicle: other) 0 of 6; (dose: 100.0 mg/kg/injection, schedule: Q01DX005 (ip), vehicle: other) 0 of 6; (dose: 200.0 mg/kg/injection, schedule: Q01DX005 (ip), vehicle: other) 0 of 6.
As for `Cc1ccc(NS(=O)(=O)c2ccccc2)cc1Cl`, the survivor count under setting [5] is listed as 10 of 10.
Consider `C=C/C(C)=C/[C@H](C)C(=O)C[C@H](O)CC1CC(=O)NC(=O)C1`, for which, under “dose: 50.0 mg/kg/injection, schedule: Q01DX009 (ip), vehicle: saline with Tween-80”, the T/C is 128 % of control [9 of 10 alive]. In addition, the survivor count under setting [1] is reported as 6 of 10.
On to `Cc1cc(NC(=O)CCc2ccc(N3C(N)=NC(N)=NC3(C)C)cc2)ccc1S(=O)(=O)F`, for which the survivor count (dose: 400.0 mg/kg/injection, schedule: Q01DX009 (ip), vehicle: saline sonified) is given as 4 of 6.
As for `O=C1C=C(SCCO)C(=O)c2ccccc21`, the survivor count (dose: 0.75 mg/kg/injection, schedule: Q01DX009 (ip), vehicle: saline with Tween-80) was 6 of 6; the survivor count under setting [3] is reported as 6 of 6; the survivor count under setting [4] is reported as 6 of 6; the survivor count (dose: 37.5 micrograms/kg/injection, schedule: Q01DX009 (ip), vehicle: saline with Tween-80) is recorded as 6 of 6; the survivor count (dose: 75.0 micrograms/kg/injection, schedule: Q01DX009 (ip), vehicle: saline with Tween-80) is 6 of 6. The T/C (dose: 22.5 micrograms/kg/injection, schedule: Q01DX009 (ip), vehicle: saline with Tween-80) is 135 % of control.
As for `CC(=O)OCCN1CC1`, the survivor count was 0 of 10 (dose: 50.0 mg/kg/injection, schedule: Q01DX009 (ip), vehicle: saline) and 0 of 10 under setting [6].
Turning to `CCN(CC)Cc1ncccc1O`, the survivor count under setting [7] is 9 of 10.
`CC(C)OCc1c(N)nc(=S)[nH]c1C(=O)O`: the survivor count under setting [6] is given as 6 of 10.
In the case of `CCCCNC(=O)C1C=C2c3cccc4[nH]cc(c34)CC2N(C)C1` (stereo not given), the survivor count by setting is: (dose: 6.25 mg/kg/injection, schedule: Q01DX009 (ip), vehicle: Klucel (hydroxypropylcellulose) (HPC)) 10 of 10; under setting [5], 1 of 10; under setting [7], 2 of 10.
For `Oc1ccccc1/C=N/NC(=S)NC1CC2C=CC1C2` (stereo not given), the survivor count runs as follows: (dose: 12.5 mg/kg/injection, schedule: Q01DX009 (ip), vehicle: olive oil, sesame oil, peanut oil) 9 of 10 and 10 of 10; (dose: 25.0 mg/kg/injection, schedule: Q01DX009 (ip), vehicle: olive oil, sesame oil, peanut oil) 10 of 10 (2×); (dose: 50.0 mg/kg/injection, schedule: Q01DX009 (ip), vehicle: olive oil, sesame oil, peanut oil) 9 of 10; (dose: 100.0 mg/kg/injection, schedule: Q01DX009 (ip), vehicle: olive oil, sesame oil, peanut oil) 9 of 10 and 10 of 10; (dose: 200.0 mg/kg/injection, schedule: Q01DX009 (ip), vehicle: olive oil, sesame oil, peanut oil) 9 of 10 and 10 of 10; (dose: 400.0 mg/kg/injection, schedule: Q01DX009 (ip), vehicle: olive oil, sesame oil, peanut oil) 8 of 10 and 10 of 10.
Turning to `O=C1C(NCCO)=C(N2CC2)C(=O)C(NCCO)=C1N1CC1`, the T/C is 137 % of control (dose: 0.09 mg/kg/injection, schedule: Q01DX009 (ip), vehicle: saline) and 144 % of control (dose: 0.18 mg/kg/injection, schedule: Q01DX009 (ip), vehicle: saline). The survivor count was 10 of 10 (dose: 0.75 mg/kg/injection, schedule: Q01DX009 (ip), vehicle: saline); 7 of 10, 9 of 10, 10 of 10 (dose: 1.5 mg/kg/injection, schedule: Q01DX009 (ip), vehicle: saline); 8 of 10 and 10 of 10 (dose: 3.0 mg/kg/injection, schedule: Q01DX009 (ip), vehicle: saline).
